According to the supplement of paper PMC12889115:
This is one part of the list. These are raw signals, not scaled to a control.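 In the initial screen, polymyxin B was used at a concentration that permeabilizes Salmonella's outer membrane but not its inner membrane. Maximum growth was set by DMSO wells with or without polymyxin B. Since plates varied, data were ranked per plate, and compounds giving the lowest OD600 advanced as hits.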

Tested on: Salmonella enterica serovar Typhimurium SL1344
Experiment: bacterial growth OD600 after 18 h with compound and polymyxin B; higher = more bacterial growth (less inhibition)
Conditions: 50 µM, Mueller-Hinton broth

COCC1CCN(C(=O)c2ccc3oc(Cc4ccc(Cl)cc4)nc3c2)C1 (stereo unspecified)
bacterial growth OD600 (polymyxin B 1 µg/mL): 0.953

O=C(NCCC(c1ccccc1)c1ccccc1)C1CC12CCN(C(=O)CCn1cncn1)CC2 (stereo unspecified)
bacterial growth OD600 (polymyxin B 0.75 µg/mL): 0.878

COc1cc(CC2(CCC(=O)NC(Cc3ccccc3)c3ccccc3)CCC(=O)N2)ccc1F (stereo unspecified)
bacterial growth OD600 (polymyxin B 0.75 µg/mL): 0.781

COc1ccccc1C1CN(CCNC(=O)C(c2cccnc2)N2CCCC2)Cc2ccccc2O1 (stereo unspecified)
bacterial growth OD600 (polymyxin B 0.75 µg/mL): 0.086

Cc1nc2ccccc2n1Cc1cc(C(=O)N(C)C2CCOC2)n[nH]1 (stereo unspecified)
bacterial growth OD600 (polymyxin B 1 µg/mL): 1.05

COCCC1CCCCN1C(=O)c1csc2nc(-c3ccccc3)cn12 (stereo unspecified)
bacterial growth OD600 (polymyxin B 1 µg/mL): 1.12

O=C(Cc1ccc2c(c1)OCO2)NCCN1Cc2ccccc2OC(c2ccccc2F)C1 (stereo unspecified)
bacterial growth OD600 (polymyxin B 0.75 µg/mL): 0.447

C=CCC(O)(CC=C)CNC1CCN(c2ccc(NC(=O)CCc3ccccc3)cc2)CC1
bacterial growth OD600 (polymyxin B 0.75 µg/mL): 0.823

O=C(c1coc(COc2cccc(F)c2)n1)N1CCCCCC1
bacterial growth OD600 (polymyxin B 1 µg/mL): 0.874

CO[C@H]1[C@H](NC(=O)C(C)C)c2ccccc2C12CCN(C(=O)COc1ccc(Cl)cc1)CC2
bacterial growth OD600 (polymyxin B 0.75 µg/mL): 0.591

O=C(c1ccccc1)C1CCN(C(=O)C2CCC(=O)N(CCN3CCOCC3)C2)CC1 (stereo unspecified)
bacterial growth OD600 (polymyxin B 1 µg/mL): 0.926

CN1CCC(N(C)C(=O)c2csc3nc(-c4ccc(C(F)(F)F)cc4)cn23)C1 (stereo unspecified)
bacterial growth OD600 (polymyxin B 1 µg/mL): 0.728

CCN(Cc1nccn1C)c1ccc(-c2nc(C(C)C)no2)cn1
bacterial growth OD600 (polymyxin B 0.75 µg/mL): 0.759

CC(=O)N1CCC(Oc2ccc(Cl)cc2C(=O)NCc2nccn2C)CC1
bacterial growth OD600 (polymyxin B 1 µg/mL): 0.879

CC(C)=CCN1CC[C@@H](N2CCN(CCc3ccccc3)CC2)[C@H](O)C1
bacterial growth OD600 (polymyxin B 0.75 µg/mL): 0.873

CC(C)CC(=O)NCC1CC(Cc2ccc(F)cc2)=NO1 (stereo unspecified)
bacterial growth OD600 (polymyxin B 0.75 µg/mL): 0.801

Cc1c[nH]c(CN(C)C(=O)CC(c2ccccc2)c2ccccc2C)n1 (stereo unspecified)
bacterial growth OD600 (polymyxin B 1 µg/mL): 0.693

OC1CCN([C@@H]2CCN(Cc3cccc4c3sc3ccccc34)C[C@H]2O)CC1
bacterial growth OD600 (polymyxin B 0.75 µg/mL): 0.449

c1cc(CN(CCN2CCCCC2)CC2CCCN(C3CCCC3)C2)ccn1 (stereo unspecified)
bacterial growth OD600 (polymyxin B 0.75 µg/mL): 0.847

CCn1ccnc1CN(C)C(=O)CC(c1ccccc1)c1cccc(Cl)c1 (stereo unspecified)
bacterial growth OD600 (polymyxin B 1 µg/mL): 0.022

Cc1nc(CC(=O)NCC2CCC3(CCN(Cc4cccnc4)CC3)O2)cs1 (stereo unspecified)
bacterial growth OD600 (polymyxin B 0.75 µg/mL): 0.862

CCCN(CC1CCCO1)C(=O)c1ccc(-n2cc(NC(=O)c3cccnc3)cn2)cc1 (stereo unspecified)
bacterial growth OD600 (polymyxin B 0.75 µg/mL): 0.833

O=C(c1cc(COc2cncc(Cl)c2)on1)N1CCC(Oc2cccnc2)CC1
bacterial growth OD600 (polymyxin B 1 µg/mL): 0.921

O=C(NCCc1ccccc1)C1CCN(C2CCN(C(=O)c3ccco3)CC2)CC1
bacterial growth OD600 (polymyxin B 0.75 µg/mL): 0.851

C#CCN(CC=C)C(=O)CC1C(=O)NCCN1CCC(C)C (stereo unspecified)
bacterial growth OD600 (polymyxin B 1 µg/mL): 0.942

CC1(C(=O)NC2CC(=O)N(Cc3cccc(F)c3)C2)CC1 (stereo unspecified)
bacterial growth OD600 (polymyxin B 1 µg/mL): 0.889

COc1cccc(CCC2CCCN(C3CCSCC3)C2)c1 (stereo unspecified)
bacterial growth OD600 (polymyxin B 0.75 µg/mL): 0.792

O=C(NCC1CCCO1)C1CCN(C2CCN(C(=O)CCC3CCCCC3)CC2)CC1 (stereo unspecified)
bacterial growth OD600 (polymyxin B 1 µg/mL): 0.736

O=C(Nc1ccnn1C1CCN(C(=O)CCc2ccccc2Cl)CC1)C1CC1
bacterial growth OD600 (polymyxin B 1 µg/mL): 0.931

O=C(c1ccc(F)cc1Cl)N1CCCC(CO)(Cc2ccc(F)cc2)C1 (stereo unspecified)
bacterial growth OD600 (polymyxin B 1 µg/mL): 1.13

CC(C)CN1CCC(CN(C)C(=O)CCc2nnc(-c3ccc4c(c3)OCO4)o2)CC1
bacterial growth OD600 (polymyxin B 0.75 µg/mL): 0.76
